Laboratory results published in PubChem BioAssay AID2685 (National Center for Advancing Translational Sciences (NCATS), 2010).
This is one part of the list. Further columns of the screen follow, without active or inactive calls. The list favours compounds with an active or inconclusive main result. Words in brackets tell the shape of the fitted curve; partial curves, single points and poor fits give uncertain potencies.

Assay: qHTS Assay for Lipid Storage Modulators in Drosophila S3 Cells;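 as to cell number change: cells counted by Cell Tracker Red CMTPX staining in the red channel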
Details: BODIPY lipid droplet fluorescence, 18-24 h; for cell number change: measured here: cell count max response, cells fed with added oleic acid
Summary of the method: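 Drosophila S3 cells loaded with oleic acid (400 uM, as added) and compounds at several concentrations; lipid droplets imaged by 488-nm laser-scanning cytometry, 500–530 nm intensity and object ratio to cell channel. Percent activity normalized to 20 uM Triacsin C.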

[1] = measured here: cell number channel AC50, cells fed with added oleic acid
[2] = measured here: lipid fluorescence (Fed channel) AC50, cells fed with added oleic acid

| Structure (SMILES) | cell number change | AC50 [1] | AC50 [2] |
| --- | --- | --- | --- |
| COc1cc([C@@H]2c3cc4c(cc3[C@@H](O)[C@H]3COC(=O)[C@H]23)OCO4)cc(OC)c1O[Si](C)(C)C(C)(C)C | -19.2% |  |  |
| CCN(C(=O)c1ccc(S(=O)(=O)N(C)C)cc1)C(C)C(=O)Nc1ccc(C)cc1 (configuration not stated) | -24.6% | 3.26 µM [falling, full curve, poor fit] | 6.51 µM [falling, single point] |
| CN(CCOc1ccc(Cl)cc1)C(=O)C1CCN(C(=O)c2ccc(F)cc2)CC1 | 23.8% |  | 2.91 µM [rising, single point] |
| CCOc1cc(N2CCOCC2)c(OCC)cc1NC(=O)c1cc(C)nc2ccccc12 | -20.6% | 0.00517 µM [falling, full curve, poor fit] | 0.00411 µM [falling, full curve, poor fit] |
| O=C(CCS(=O)(=O)Cc1ccccc1)NCCc1ccccc1 | -1.36% |  | 6.51 µM [rising, partial curve, poor fit] |
| Cc1ccc(NC(=O)COC(=O)c2ccc(Cl)cc2)cc1S(=O)(=O)N(C)C |  | 6.51 µM [falling, single point] | 1.46 µM [falling, single point] |
| COCCn1c(CN2CCN(c3ccc(F)cc3)CC2)nc2c1c(=O)n(C)c(=O)n2C | -29.8% |  | 25.9 µM [falling, partial curve, poor fit] |
| Cc1oc(-c2ccc(Cl)cc2)nc1CN1CCCC(C(=O)NCCCN2CCOCC2)C1 (configuration not stated) | -7.49% | 1.16 µM [falling, partial curve] |  |
| O=C(O)CC(NCc1ccco1)C(=O)OCCc1ccccc1 (configuration not stated) | 16.1% |  |  |
| CC1=CC(C)(C)NC(=S)N1c1ccccc1 | 11.5% |  | 2.06 µM [falling, full curve] |
| COc1cc(-c2nnc(-c3cccs3)o2)cc(OC)c1OC | 28.2% |  | 1.3 µM [rising, partial curve] |
| COC1=C(Nc2ccccc2OC)C(=O)c2ccccc2C1=O | -52.4% | 29.1 µM [falling, single point] | 29.1 µM [falling, single point] |
| O=C(Cc1ccc(Cl)cc1)NC1CCS(=O)(=O)C1 (configuration not stated) | 0.829% |  | 20.6 µM [rising, single point] |
| O=C(c1cnn(-c2ccc(Cl)cc2)c1)c1ccccc1O | 55.5% |  |  |
| COc1cc(C)ccc1OCCCOc1c(Cl)cccc1Cl | 1.32% |  | 0.92 µM [rising, full curve, poor fit] |
| CC(=O)C1=C(O)C(=O)N(CCc2c[nH]c3ccccc23)C1c1cccc(O)c1 (configuration not stated) |  |  | 23.1 µM [falling, partial curve] |
| O=C(COc1ccccc1F)Nc1c2c(nn1-c1ccccc1)CS(=O)(=O)C2 | 28.2% | 2.31 µM [rising, single point] | 16.4 µM [rising, partial curve, poor fit] |
| COC(=O)c1cccc(Cn2nnc3ccccc3c2=O)c1 |  | 0.326 µM [rising, partial curve] | 0.103 µM [rising, full curve, poor fit] |
| CCCCOC(=O)C1[C@H]2C(=O)N(c3ccccc3CC)C[C@]23C=C[C@H]1O3 (some centres not stated) | 1.37% |  |  |

| Structure (SMILES) | cell number change | AC50 [1] | AC50 [2] |
| --- | --- | --- | --- |
| CC(C)Cn1c(-c2cccnc2)nc2c1c(=O)[nH]c(=O)n2CC(C)C | 24.1% |  | 29.1 µM [rising, single point] |
| CC(=O)c1ccc(N2CCN(C(=O)c3ccc4c(=O)n(-c5ccccc5)c(=O)[nH]c4c3)CC2)cc1 | -18.3% | 0.103 µM [falling, full curve, poor fit] |  |
| CCOC(=O)Cc1nnc(NC(=O)CC)s1 | 31.6% | 7.31 µM [rising, partial curve] | 6.51 µM [rising, single point] |
| O=P(Cc1cc(Br)cc(Br)c1OCCO)(c1ccccc1)c1ccccc1 | 26.8% | 0.092 µM [rising, full curve, poor fit] |  |
| CCOc1ccc(NC(=O)N2CCC(C(=O)c3ccc(F)cc3)CC2)cc1 | -46.4% | 32.6 µM [falling, single point] | 20.6 µM [falling, single point] |
| Cc1cc2oc(=O)cc(CSc3nc(N)cc(N)n3)c2cc1C(C)C | 13.2% | 0.092 µM [rising, full curve, poor fit] | 0.82 µM [rising, full curve, poor fit] |
| O=C(COC(=O)c1ccc(Br)cc1)NCCc1ccccc1 | -20.8% | 0.651 µM [falling, full curve] | 0.13 µM [falling, full curve, poor fit] |
| Cc1cc(C)cc(-n2ncc3c2CCCC3NC(=O)c2ccccc2N2CCOCC2)c1 (configuration not stated) | -30.6% | 1.84 µM [falling, partial curve, poor fit] | 4.61 µM [falling, full curve] |
| COc1cccc(CNS(=O)(=O)c2ccc3c(c2)N(C(C)=O)CCO3)c1 | -0.597% |  | 2.31 µM [rising, single point] |
| CCCCn1nc(C(=O)NCC(c2cccs2)N2CCOCC2)c2ccccc2c1=O (configuration not stated) | -50.9% | 20.6 µM [falling, partial curve] | 0.651 µM [falling, partial curve, poor fit] |
| Cc1ccc(-n2c(COc3c(C)cccc3C)nnc2SCC(=O)Nc2nccs2)cc1 | 54.3% | 0.411 µM [rising, full curve] | 0.92 µM [rising, partial curve] |
| Cc1ccc(Cl)c(OCC(=O)NCC(c2cccs2)N2CCOCC2)c1 (configuration not stated) | 63.7% | 7.31 µM [rising, partial curve] | 8.2 µM [rising, partial curve] |
| CC(C)n1c(=O)n(CC(=O)NCC2CCCO2)c(=O)c2c3c(sc21)COC(C)(C)C3 (configuration not stated) | 28.7% |  | 29.1 µM [rising, single point] |
| CCc1ccccc1NC(=O)c1cccc(NC(=O)/C=C/c2ccco2)c1 | -4.94% |  | 13 µM [falling, partial curve, poor fit] |
| O=C(/C=C/c1ccco1)NCC1COc2ccccc2O1 (configuration not stated) | 6.55% |  | 29.1 µM [falling, single point] |
| CN(C)S(=O)(=O)c1ccc(N2CCCC2)c(C(=O)N2CCN(S(=O)(=O)c3ccccc3F)CC2)c1 | 24.5% |  |  |
| C/C(N)=C(/C#N)C(=O)COC(=O)c1cc(-c2ccccc2)nc2ccc(Br)cc12 | 63.1% | 18.4 µM [rising, partial curve] |  |
| Cc1ccnc(NC(=O)c2cc(-c3ccc(Cl)s3)nc3ccccc23)c1 |  | 2.91 µM [rising, partial curve] |  |
| Cc1ccc(OCC(=O)NNC(=O)c2ccco2)c(C)c1 | 11% |  |  |

A portion of the results above, for reference:

| Structure (SMILES) | cell number change | AC50 [1] | AC50 [2] |
| --- | --- | --- | --- |
| O=C(COC(=O)c1ccc(Br)cc1)NCCc1ccccc1 | -20.8% | 0.651 µM [falling, full curve] | 0.13 µM [falling, full curve, poor fit] |
| Cc1cc(C)cc(-n2ncc3c2CCCC3NC(=O)c2ccccc2N2CCOCC2)c1 (configuration not stated) | -30.6% | 1.84 µM [falling, partial curve, poor fit] | 4.61 µM [falling, full curve] |
| COc1cccc(CNS(=O)(=O)c2ccc3c(c2)N(C(C)=O)CCO3)c1 | -0.597% |  | 2.31 µM [rising, single point] |
| CCCCn1nc(C(=O)NCC(c2cccs2)N2CCOCC2)c2ccccc2c1=O (configuration not stated) | -50.9% | 20.6 µM [falling, partial curve] | 0.651 µM [falling, partial curve, poor fit] |
| Cc1ccc(-n2c(COc3c(C)cccc3C)nnc2SCC(=O)Nc2nccs2)cc1 | 54.3% | 0.411 µM [rising, full curve] | 0.92 µM [rising, partial curve] |
| Cc1ccc(Cl)c(OCC(=O)NCC(c2cccs2)N2CCOCC2)c1 (configuration not stated) | 63.7% | 7.31 µM [rising, partial curve] | 8.2 µM [rising, partial curve] |
| CC(C)n1c(=O)n(CC(=O)NCC2CCCO2)c(=O)c2c3c(sc21)COC(C)(C)C3 (configuration not stated) | 28.7% |  | 29.1 µM [rising, single point] |
| CCc1ccccc1NC(=O)c1cccc(NC(=O)/C=C/c2ccco2)c1 | -4.94% |  | 13 µM [falling, partial curve, poor fit] |
| O=C(/C=C/c1ccco1)NCC1COc2ccccc2O1 (configuration not stated) | 6.55% |  | 29.1 µM [falling, single point] |
| CN(C)S(=O)(=O)c1ccc(N2CCCC2)c(C(=O)N2CCN(S(=O)(=O)c3ccccc3F)CC2)c1 | 24.5% |  |  |

Going on with the list:

| Structure (SMILES) | cell number change | AC50 [1] | AC50 [2] |
| --- | --- | --- | --- |
| Cc1ccc(Nc2ccc(S(=O)(=O)N3CCOCC3)cc2[N+](=O)[O-])cc1C | -48.9% | 25.9 µM [falling, single point] |  |
| O=C(Nc1ccc2oc(-c3ccccc3)nc2c1)c1ccc2c(c1)OCCO2 | 6.94% |  | 0.461 µM [rising, full curve, poor fit] |
| Cc1cccc(N2C(=S)N=C(Nc3c(C)cccc3C)C23CCOC(C)(C)C3)c1 (configuration not stated) | 33.2% | 32.6 µM [rising, single point] | 6.51 µM [falling, single point] |
| COc1cc(CNCc2cc(OC)ccc2OC)cc(OC)c1 | 15.8% |  | 29.1 µM [rising, single point] |
| O=C(COc1ccccc1)NCC(c1ccco1)N1CCN(c2ccc(F)cc2)CC1 (configuration not stated) | 45.3% | 5.8 µM [rising, full curve, poor fit] | 5.8 µM [rising, single point] |
| Cc1cc(C)n(CC(O)COc2ccc(Cl)cc2Cl)n1 (configuration not stated) | 3.24% |  | 29.1 µM [rising, single point] |
| Cc1ccc(NC(=O)c2nccnc2C(=O)O)cc1C | -39.4% | 36.6 µM [falling, partial curve, poor fit] | 3.66 µM [falling, partial curve] |
| Cc1ccc(S(=O)(=O)NC(=O)Nc2cc(C)on2)cc1 | 36.9% | 1.46 µM [falling, partial curve] |  |
| O=C(O)c1ccc2c(c1)ncn2C1CCCCC1 | -30.2% | 0.731 µM [falling, full curve] | 0.731 µM [falling, full curve] |
| CCCCNC(=O)C(=O)N/N=C/c1cccc(Br)c1 | 20.5% |  |  |
| Cc1ccc(CN2C(=O)C(C)Nc3ncnc(N4CCOCC4)c32)cc1 (configuration not stated) | -24.6% |  | 1.84 µM [falling, partial curve, poor fit] |
| O=C(O)c1ccccc1OCCOc1ccccc1C(=O)O | -188% | 0.116 µM [falling, full curve, poor fit] | 5.8 µM [falling, partial curve] |
| CC(=O)c1ccc(OCC(=O)c2cc(C)n(-c3ccc4c(c3)OCO4)c2C)cc1 | -7.38% |  | 8.2 µM [rising, partial curve] |
| c1ccc(COc2ccccc2CNCc2cccnc2)cc1 |  | 6.51 µM [rising, single point] |  |
| COc1ccc(-c2cc(C(=O)Nc3cccnc3Cl)no2)cc1 | 40.2% | 36.6 µM [rising, partial curve, poor fit] |  |
| CCN1C(Nc2ccccc2)=NC[C@@H]1CC(C)C | 15% |  |  |
| CCC(C)N(C(=O)Cn1nnc(-c2ccc(Cl)cc2)n1)C1CCS(=O)(=O)C1 (configuration not stated) | -8.44% |  |  |
| COc1ccccc1N1C(=O)C2C(C(=O)c3ccccc3)=NN(c3ccc(C)cc3)C2C1=O (configuration not stated) | -5.23% |  | 0.146 µM [falling, full curve, poor fit] |
